This note sets out measurements from patent US20100069468.

Protein sequences, listed by entry. Tags and fused reporters are not part of them. Lines headed by an entry give the natural chain unless they say otherwise; changes in a name come on top.
UniProt P05067: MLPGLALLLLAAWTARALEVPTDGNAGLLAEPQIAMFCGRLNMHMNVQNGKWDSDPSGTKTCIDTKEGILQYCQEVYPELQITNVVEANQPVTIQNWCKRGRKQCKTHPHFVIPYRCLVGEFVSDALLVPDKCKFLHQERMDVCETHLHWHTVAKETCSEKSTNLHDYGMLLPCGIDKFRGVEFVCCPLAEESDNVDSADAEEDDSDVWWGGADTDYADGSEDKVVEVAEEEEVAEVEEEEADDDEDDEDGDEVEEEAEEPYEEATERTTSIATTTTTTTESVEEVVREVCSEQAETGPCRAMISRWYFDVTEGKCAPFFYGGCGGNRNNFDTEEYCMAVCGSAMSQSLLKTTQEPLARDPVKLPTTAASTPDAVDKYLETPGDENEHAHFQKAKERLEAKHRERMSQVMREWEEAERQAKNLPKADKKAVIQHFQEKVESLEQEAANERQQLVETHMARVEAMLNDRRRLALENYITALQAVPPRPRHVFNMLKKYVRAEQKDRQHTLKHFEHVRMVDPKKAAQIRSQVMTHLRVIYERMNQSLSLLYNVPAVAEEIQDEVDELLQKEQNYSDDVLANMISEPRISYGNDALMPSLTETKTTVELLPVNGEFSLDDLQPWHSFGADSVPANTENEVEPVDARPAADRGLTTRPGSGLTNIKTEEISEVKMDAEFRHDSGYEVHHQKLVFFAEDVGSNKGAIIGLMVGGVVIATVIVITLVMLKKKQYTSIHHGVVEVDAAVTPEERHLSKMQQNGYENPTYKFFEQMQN

This series has as its target beta-amyloid peptide Abeta(1-40) (UniProt P05067). Put plainly: binding assay. The note with it: CITED Ylera et al. 2002; highest affinity Abeta(1-40) aptamer; protein details: 40-residue peptide, dissolved in HFIP.

For at least one entry, the source does not settle the construct or the ends of the probe.

Usually Kd stands for the free concentration of one partner at which half of the binding sites on the other are occupied at equilibrium, for simple one-to-one binding. As to “UUUACCGUAAGGCCUGUCUUCGUUUGACAGCGGCUUGUUGACCCUCACACUUUGUACCUGCUGCCAA [B55]”, the Kd is 0.029 µM.
